± gives the standard deviation of the averaged measurements. The list shows a part of the results.

By UniProt entry, the sequences of proteins in these tests, tags left out. Where a name states a change or a piece, a line headed by the entry shows the natural chain unless it says otherwise.
UniProt Q8IWI9: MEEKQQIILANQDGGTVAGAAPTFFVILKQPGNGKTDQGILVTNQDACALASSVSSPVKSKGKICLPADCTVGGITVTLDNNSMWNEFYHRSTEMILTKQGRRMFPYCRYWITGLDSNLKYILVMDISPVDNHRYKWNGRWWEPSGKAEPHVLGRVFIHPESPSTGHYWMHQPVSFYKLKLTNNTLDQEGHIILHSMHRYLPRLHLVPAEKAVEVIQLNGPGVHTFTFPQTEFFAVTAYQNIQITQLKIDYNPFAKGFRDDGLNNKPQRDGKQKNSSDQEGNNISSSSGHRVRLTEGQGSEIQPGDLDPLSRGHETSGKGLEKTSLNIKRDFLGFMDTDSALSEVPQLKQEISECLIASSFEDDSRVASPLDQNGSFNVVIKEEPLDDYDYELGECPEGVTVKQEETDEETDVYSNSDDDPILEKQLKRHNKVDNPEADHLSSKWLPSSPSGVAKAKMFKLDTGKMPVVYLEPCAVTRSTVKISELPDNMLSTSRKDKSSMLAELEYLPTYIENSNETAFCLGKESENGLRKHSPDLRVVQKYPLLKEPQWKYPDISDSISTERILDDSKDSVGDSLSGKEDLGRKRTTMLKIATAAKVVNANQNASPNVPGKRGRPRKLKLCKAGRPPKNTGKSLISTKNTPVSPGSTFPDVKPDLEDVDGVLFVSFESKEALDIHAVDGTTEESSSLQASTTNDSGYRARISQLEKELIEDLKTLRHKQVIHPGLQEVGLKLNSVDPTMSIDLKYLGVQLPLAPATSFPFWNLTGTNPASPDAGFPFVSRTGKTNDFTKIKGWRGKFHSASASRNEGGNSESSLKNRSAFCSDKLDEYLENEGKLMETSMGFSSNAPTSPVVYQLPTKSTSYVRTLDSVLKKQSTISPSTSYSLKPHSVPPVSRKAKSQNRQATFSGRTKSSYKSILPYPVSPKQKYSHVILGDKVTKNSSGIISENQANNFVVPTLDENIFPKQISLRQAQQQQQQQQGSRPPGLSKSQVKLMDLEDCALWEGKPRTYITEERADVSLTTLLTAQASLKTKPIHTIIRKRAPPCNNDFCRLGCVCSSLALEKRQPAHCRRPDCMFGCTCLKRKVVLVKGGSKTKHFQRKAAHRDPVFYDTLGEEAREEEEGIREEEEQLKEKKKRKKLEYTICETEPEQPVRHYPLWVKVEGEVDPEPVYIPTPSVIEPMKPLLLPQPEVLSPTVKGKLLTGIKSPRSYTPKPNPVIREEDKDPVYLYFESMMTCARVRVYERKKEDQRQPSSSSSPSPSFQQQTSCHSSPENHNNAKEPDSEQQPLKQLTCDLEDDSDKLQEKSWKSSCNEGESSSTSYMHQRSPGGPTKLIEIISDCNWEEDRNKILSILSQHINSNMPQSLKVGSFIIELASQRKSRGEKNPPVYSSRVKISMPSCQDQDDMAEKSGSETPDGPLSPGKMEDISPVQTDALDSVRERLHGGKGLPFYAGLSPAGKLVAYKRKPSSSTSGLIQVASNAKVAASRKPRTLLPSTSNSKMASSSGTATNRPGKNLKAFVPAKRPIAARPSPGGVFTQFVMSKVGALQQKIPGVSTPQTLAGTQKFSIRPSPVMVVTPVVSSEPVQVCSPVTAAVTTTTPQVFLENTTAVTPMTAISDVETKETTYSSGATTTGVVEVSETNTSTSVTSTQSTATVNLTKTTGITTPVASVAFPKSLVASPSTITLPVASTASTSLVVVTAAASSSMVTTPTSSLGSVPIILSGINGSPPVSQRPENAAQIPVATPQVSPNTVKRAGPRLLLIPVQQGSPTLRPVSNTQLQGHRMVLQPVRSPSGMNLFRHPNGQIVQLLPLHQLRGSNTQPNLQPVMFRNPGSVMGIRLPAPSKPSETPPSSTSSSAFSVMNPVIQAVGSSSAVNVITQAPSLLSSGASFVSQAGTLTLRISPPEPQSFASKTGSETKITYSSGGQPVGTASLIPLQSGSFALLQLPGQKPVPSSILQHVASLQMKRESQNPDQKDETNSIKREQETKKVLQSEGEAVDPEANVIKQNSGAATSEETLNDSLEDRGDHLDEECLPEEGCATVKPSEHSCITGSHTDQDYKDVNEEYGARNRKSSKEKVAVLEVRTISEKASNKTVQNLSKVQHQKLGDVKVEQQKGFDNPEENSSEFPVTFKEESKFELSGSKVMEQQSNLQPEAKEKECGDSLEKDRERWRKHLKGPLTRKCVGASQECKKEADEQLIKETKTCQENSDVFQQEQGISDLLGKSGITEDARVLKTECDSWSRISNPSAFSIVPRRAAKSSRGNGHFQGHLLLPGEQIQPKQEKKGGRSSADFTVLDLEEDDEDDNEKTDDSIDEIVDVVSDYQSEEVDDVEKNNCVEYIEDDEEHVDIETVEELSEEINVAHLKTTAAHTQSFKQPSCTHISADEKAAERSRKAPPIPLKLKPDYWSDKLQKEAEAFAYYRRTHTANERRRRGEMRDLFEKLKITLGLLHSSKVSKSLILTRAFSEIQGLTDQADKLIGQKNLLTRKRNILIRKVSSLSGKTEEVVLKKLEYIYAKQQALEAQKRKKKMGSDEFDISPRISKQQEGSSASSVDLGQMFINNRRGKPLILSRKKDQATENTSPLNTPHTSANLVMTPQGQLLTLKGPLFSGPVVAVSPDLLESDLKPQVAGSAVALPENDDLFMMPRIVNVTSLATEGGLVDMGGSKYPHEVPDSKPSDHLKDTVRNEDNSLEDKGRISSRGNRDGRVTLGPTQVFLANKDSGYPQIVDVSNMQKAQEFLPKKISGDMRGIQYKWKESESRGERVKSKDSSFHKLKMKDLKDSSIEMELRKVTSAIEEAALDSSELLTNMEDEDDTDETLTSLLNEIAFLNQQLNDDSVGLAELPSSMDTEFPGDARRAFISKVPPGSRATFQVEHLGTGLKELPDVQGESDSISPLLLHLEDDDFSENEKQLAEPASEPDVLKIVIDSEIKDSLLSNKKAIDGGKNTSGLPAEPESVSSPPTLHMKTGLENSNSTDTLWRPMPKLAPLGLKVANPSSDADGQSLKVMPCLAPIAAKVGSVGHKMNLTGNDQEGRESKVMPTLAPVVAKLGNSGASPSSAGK
UniProt Q8N668, whole entry: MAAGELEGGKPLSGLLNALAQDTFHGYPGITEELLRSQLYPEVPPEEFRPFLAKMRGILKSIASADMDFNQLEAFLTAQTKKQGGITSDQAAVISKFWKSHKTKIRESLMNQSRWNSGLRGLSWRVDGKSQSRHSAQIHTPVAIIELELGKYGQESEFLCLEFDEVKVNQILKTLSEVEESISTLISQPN
UniProt Q8TCS8: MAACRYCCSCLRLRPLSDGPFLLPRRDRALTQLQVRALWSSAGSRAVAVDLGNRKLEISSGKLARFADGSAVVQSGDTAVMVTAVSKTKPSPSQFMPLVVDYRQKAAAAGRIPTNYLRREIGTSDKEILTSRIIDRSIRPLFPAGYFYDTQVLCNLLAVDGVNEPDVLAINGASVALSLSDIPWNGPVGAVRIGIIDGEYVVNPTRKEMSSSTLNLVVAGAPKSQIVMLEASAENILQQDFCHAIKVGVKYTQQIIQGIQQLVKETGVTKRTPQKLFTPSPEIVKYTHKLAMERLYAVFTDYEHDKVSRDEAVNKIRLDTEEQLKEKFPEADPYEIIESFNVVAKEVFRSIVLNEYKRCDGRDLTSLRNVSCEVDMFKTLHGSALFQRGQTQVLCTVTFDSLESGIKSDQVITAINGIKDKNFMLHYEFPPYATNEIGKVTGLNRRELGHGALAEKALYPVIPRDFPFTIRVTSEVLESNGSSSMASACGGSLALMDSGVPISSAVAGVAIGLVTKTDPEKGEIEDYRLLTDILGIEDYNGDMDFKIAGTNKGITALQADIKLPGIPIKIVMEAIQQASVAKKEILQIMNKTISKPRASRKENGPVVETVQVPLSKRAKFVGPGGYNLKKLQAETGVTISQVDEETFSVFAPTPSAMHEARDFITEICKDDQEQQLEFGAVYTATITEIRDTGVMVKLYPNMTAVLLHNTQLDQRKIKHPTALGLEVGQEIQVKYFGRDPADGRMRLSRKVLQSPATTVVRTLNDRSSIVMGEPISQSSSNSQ
UniProt Q8NC51: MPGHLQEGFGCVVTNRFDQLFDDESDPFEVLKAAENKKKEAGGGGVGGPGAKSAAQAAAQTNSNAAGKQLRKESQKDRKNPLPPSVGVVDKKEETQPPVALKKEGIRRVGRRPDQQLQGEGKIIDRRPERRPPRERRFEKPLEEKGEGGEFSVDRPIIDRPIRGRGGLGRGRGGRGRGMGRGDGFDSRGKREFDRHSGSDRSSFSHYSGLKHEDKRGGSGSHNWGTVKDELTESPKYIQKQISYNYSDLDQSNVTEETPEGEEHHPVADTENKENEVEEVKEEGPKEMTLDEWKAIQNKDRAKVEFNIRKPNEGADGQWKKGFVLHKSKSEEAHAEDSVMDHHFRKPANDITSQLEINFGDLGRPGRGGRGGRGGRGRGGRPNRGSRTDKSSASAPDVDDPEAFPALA
UniProt Q8IY22: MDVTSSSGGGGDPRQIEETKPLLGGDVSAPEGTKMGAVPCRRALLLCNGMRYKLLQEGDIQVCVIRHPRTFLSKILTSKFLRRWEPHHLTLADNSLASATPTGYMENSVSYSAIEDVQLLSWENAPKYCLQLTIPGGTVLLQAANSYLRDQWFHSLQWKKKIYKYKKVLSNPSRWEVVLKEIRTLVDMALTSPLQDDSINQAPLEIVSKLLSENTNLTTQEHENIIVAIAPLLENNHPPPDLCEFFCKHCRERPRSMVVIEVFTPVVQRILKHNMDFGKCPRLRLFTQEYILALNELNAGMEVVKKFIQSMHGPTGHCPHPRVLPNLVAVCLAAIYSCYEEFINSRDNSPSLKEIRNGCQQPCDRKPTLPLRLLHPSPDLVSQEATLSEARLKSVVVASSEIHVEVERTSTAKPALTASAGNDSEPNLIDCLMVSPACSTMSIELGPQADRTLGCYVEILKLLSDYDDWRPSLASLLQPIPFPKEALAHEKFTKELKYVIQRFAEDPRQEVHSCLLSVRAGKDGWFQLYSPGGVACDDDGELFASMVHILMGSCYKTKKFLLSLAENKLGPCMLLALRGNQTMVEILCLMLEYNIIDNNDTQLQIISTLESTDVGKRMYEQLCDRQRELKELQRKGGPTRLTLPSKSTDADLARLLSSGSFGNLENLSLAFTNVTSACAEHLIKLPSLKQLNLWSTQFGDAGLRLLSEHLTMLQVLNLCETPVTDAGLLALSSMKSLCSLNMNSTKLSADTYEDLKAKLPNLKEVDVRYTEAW
UniProt Q8IYI6: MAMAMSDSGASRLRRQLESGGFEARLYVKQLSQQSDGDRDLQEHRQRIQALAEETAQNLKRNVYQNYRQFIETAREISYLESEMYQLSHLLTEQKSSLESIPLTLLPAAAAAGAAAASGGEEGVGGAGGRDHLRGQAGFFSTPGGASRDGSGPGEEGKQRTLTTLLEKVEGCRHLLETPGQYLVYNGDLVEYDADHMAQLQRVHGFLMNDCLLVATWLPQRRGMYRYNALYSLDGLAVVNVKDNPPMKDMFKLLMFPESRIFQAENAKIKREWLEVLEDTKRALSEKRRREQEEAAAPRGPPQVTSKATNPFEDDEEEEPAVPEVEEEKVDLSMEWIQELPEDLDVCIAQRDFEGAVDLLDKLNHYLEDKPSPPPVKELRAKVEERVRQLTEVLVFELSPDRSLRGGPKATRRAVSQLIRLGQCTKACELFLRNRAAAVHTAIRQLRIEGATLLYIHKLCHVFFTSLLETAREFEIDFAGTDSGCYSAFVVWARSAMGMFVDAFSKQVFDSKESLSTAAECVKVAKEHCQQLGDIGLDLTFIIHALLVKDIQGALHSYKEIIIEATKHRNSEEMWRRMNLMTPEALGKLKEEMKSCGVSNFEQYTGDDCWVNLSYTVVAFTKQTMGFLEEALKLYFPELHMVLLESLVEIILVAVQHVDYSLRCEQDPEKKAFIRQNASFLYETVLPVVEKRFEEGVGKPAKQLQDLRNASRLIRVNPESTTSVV

Compound in one experiment: Nc1nc2c(ncn2[C@@H]2O[C@H](COP(=O)(O)OP(=O)(O)OP(=O)(O)O)[C@@H](O)[C@H]2O)c(=O)[nH]1 [guanosine triphosphate]
Description: NP40-soluble protein abundance relative to vehicle (solubility fold change) (ratio); higher = more soluble protein in presence of GTP. Particulars: concentration: 0.1mM. The method, boiled down: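 In three independent experiments, Jurkat crude lysate made by Dounce homogenisation was treated for 10 min at room temperature and then 3 min at 37 °C with eight concentrations ranging from 0.1 to 10 mM. It was then solubilised with 0.8% NP40 plus benzonase for 60 min at 4 °C and ultracentrifuged. The supernatant was TMT-labelled for LC-MS/MS, and each value is the fold change against the detergent-processed vehicle for the same replicate, using vsn-normalised intensities.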
UniProt Q86YS7 and related entries: the NP40-soluble protein abundance worked out at 0.9788 ± 0.0071.
For UniProt Q8N108 and related entries, the NP40-soluble protein abundance was determined as 0.97 ± 0.062.
On to UniProt Q8N4V1 and related entries, for which the NP40-soluble protein abundance is 0.881 ± 0.12.
TTC39C (UniProt Q8N584): the NP40-soluble protein abundance amounted to 0.959 ± 0.043.
The same measure, in the same setting: with UniProt Q8IWI9 and related entries the figure was 1.05 ± 0.081; with UniProt Q8TED0 and related entries, 1.17 ± 0.14.
For the target UniProt Q8IY17 and related entries, the NP40-soluble protein abundance was determined as 1.0469 ± 0.00053.
Turning to SMC5 (UniProt Q8IY18), the NP40-soluble protein abundance stood at 1.026 ± 0.0089.
With COMMD1 (UniProt Q8N668), the NP40-soluble protein abundance was determined as 0.891 ± 0.062.
In the case of UniProt Q8IZ81 and related entries, the NP40-soluble protein abundance came out at 1.12 ± 0.15.
Regarding UniProt Q8IX90, the NP40-soluble protein abundance turned out to be 0.962 ± 0.019.
Same read-out and setting: with GSPT2 (UniProt Q8IYD1) the figure was 0.956 ± 0.071; with UniProt Q8IYE0 and related entries, 0.918 ± 0.095.
Consider UniProt Q8NFD5 and related entries, for which the NP40-soluble protein abundance stood at 1.01 ± 0.03.
“Q86WV7 and related entries (UniProt Q96MW1)”: the NP40-soluble protein abundance came out at 0.875 ± 0.052.
As for UBASH3B (UniProt Q8TF42), the NP40-soluble protein abundance amounted to 1.07 ± 0.065.
For the target FBXO22 (UniProt Q8NEZ5), the NP40-soluble protein abundance came to 1.02 ± 0.024.
UniProt Q8NHH9 and related entries: the NP40-soluble protein abundance was 1.05 ± 0.09.
In the case of RYBP (UniProt Q8N488), the NP40-soluble protein abundance stood at 0.931 ± 0.16.
Still for that read-out and setting: with PNPT1 (UniProt Q8TCS8) the figure was 1.07 ± 0.023; with NEK9 (UniProt Q8TD19), 1.02 ± 0.016; with UniProt Q8N9R8 and related entries, 1.08 ± 0.048.
As to UniProt Q86X83 and related entries, the NP40-soluble protein abundance is 1.03 ± 0.035.
Regarding UniProt Q8TAF3 and related entries, the NP40-soluble protein abundance came to 1.03 ± 0.068.
As to RNF214 (UniProt Q8ND24), the NP40-soluble protein abundance was 0.971 ± 0.085.
With FTSJ3 (UniProt Q8IY81), the NP40-soluble protein abundance was determined as 0.979 ± 0.012.
With UniProt Q8NE86 and related entries, the NP40-soluble protein abundance was 1.13 ± 0.051.
As to UniProt Q8NC51 and related entries, the NP40-soluble protein abundance was found to be 0.929 ± 0.049.
Regarding SETD7 (UniProt Q8WTS6), the NP40-soluble protein abundance was found to be 0.925 ± 0.054.
For UniProt Q8IYB7 and related entries, the NP40-soluble protein abundance is 1.04 ± 0.038.
UniProt Q8NHM5 and related entries: the NP40-soluble protein abundance amounted to 1.06 ± 0.043.
Take CMIP (UniProt Q8IY22): the NP40-soluble protein abundance worked out at 1.01 ± 0.066.
Regarding IRF2BP1 (UniProt Q8IU81), the NP40-soluble protein abundance worked out at 0.989 ± 0.05.
As for UniProt Q8N6Q8, the NP40-soluble protein abundance stood at 1.07 ± 0.067.
The same measure, in the same setting: next, UniProt Q8ND82 and related entries: 1.04 ± 0.085; EXOC8 (UniProt Q8IYI6): 0.997 ± 0.04; NUDCD3 (UniProt Q8IVD9): 0.934 ± 0.019.

The same experiment, now with this note: concentration: 0.5mM.
As for UniProt Q86YS7 and related entries, the NP40-soluble protein abundance was found to be 1 ± 0.038.
UniProt Q8N108 and related entries: the NP40-soluble protein abundance turned out to be 0.942 ± 0.044.
Turning to UniProt Q8N4V1 and related entries, the NP40-soluble protein abundance was 0.924 ± 0.11.
In the case of TTC39C (UniProt Q8N584), the NP40-soluble protein abundance was determined as 1.01 ± 0.074.
As to UniProt Q8IWI9 and related entries, the NP40-soluble protein abundance amounted to 1.07 ± 0.026.
The same measure, in the same setting: next, UniProt Q8TED0 and related entries: 1.14 ± 0.2; UniProt Q8IY17 and related entries: 1.064 ± 0.0081.
For the target SMC5 (UniProt Q8IY18), the NP40-soluble protein abundance worked out at 1.06 ± 0.036.
On to COMMD1 (UniProt Q8N668), for which the NP40-soluble protein abundance came out at 0.865 ± 0.077.
Take UniProt Q8IZ81 and related entries: the NP40-soluble protein abundance is 1.15 ± 0.2.
For the target UniProt Q8IX90, the NP40-soluble protein abundance was found to be 0.959 ± 0.025.
As for GSPT2 (UniProt Q8IYD1), the NP40-soluble protein abundance was 0.978 ± 0.061.
For UniProt Q8IYE0 and related entries, the NP40-soluble protein abundance came out at 0.971 ± 0.051.
Take UniProt Q8NFD5 and related entries: the NP40-soluble protein abundance is 1.06 ± 0.072.
The same measure, in the same setting: with “Q86WV7 and related entries (UniProt Q96MW1)” the figure was 0.837 ± 0.048; with UBASH3B (UniProt Q8TF42), 1.06 ± 0.077.
Turning to FBXO22 (UniProt Q8NEZ5), the NP40-soluble protein abundance turned out to be 0.985 ± 0.053.
The same measure, in the same setting: with UniProt Q8NHH9 and related entries the figure was 1.03 ± 0.099.
The same measure, in the same setting: next, RYBP (UniProt Q8N488): 0.909 ± 0.13.
On the same count and under the same terms, with PNPT1 (UniProt Q8TCS8) the figure was 1.02 ± 0.05; with NEK9 (UniProt Q8TD19), 1.03 ± 0.018.
Regarding UniProt Q8N9R8 and related entries, the NP40-soluble protein abundance amounted to 1.06 ± 0.11.
Regarding UniProt Q86X83 and related entries, the NP40-soluble protein abundance worked out at 1.03 ± 0.037.
Consider UniProt Q8TAF3 and related entries, for which the NP40-soluble protein abundance was found to be 1.05 ± 0.06.
On to RNF214 (UniProt Q8ND24), for which the NP40-soluble protein abundance came to 0.97 ± 0.093.
The same measure, in the same setting: with FTSJ3 (UniProt Q8IY81) the figure was 0.97 ± 0.039; with UniProt Q8NE86 and related entries, 1.07 ± 0.079.
For the target UniProt Q8NC51 and related entries, the NP40-soluble protein abundance came out at 0.937 ± 0.054.
For the target SETD7 (UniProt Q8WTS6), the NP40-soluble protein abundance stood at 0.952 ± 0.059.
For the target UniProt Q8IYB7 and related entries, the NP40-soluble protein abundance turned out to be 1.04 ± 0.035.
The same measure, in the same setting: next, UniProt Q8NHM5 and related entries: 1.08 ± 0.043; CMIP (UniProt Q8IY22): 1.02 ± 0.072.
Same read-out and setting: next, IRF2BP1 (UniProt Q8IU81): 0.969 ± 0.042; UniProt Q8N6Q8: 0.921 ± 0.061; UniProt Q8ND82 and related entries: 1.01 ± 0.028.
Regarding EXOC8 (UniProt Q8IYI6), the NP40-soluble protein abundance came out at 0.996 ± 0.06.
Same read-out and setting: next, NUDCD3 (UniProt Q8IVD9): 0.965 ± 0.017.

The same experiment, now with this note: concentration: 1mM.
For the target UniProt Q86YS7 and related entries, the NP40-soluble protein abundance came out at 0.942 ± 0.05.
UniProt Q8N108 and related entries: the NP40-soluble protein abundance turned out to be 0.986 ± 0.042.
The same measure, in the same setting: with UniProt Q8N4V1 and related entries the figure was 1.02 ± 0.019.
As for TTC39C (UniProt Q8N584), the NP40-soluble protein abundance was found to be 0.969 ± 0.02.
On to UniProt Q8IWI9 and related entries, for which the NP40-soluble protein abundance is 1.09 ± 0.033.
For the target UniProt Q8TED0 and related entries, the NP40-soluble protein abundance worked out at 1.13 ± 0.062.
The same measure, in the same setting: with UniProt Q8IY17 and related entries the figure was 1.02 ± 0.15; with SMC5 (UniProt Q8IY18), 1.03 ± 0.025.
Same read-out and setting: next, COMMD1 (UniProt Q8N668): 0.99 ± 0.018; UniProt Q8IZ81 and related entries: 0.932 ± 0.066.
For UniProt Q8IX90, the NP40-soluble protein abundance is 0.99 ± 0.065.
In the case of GSPT2 (UniProt Q8IYD1), the NP40-soluble protein abundance came to 0.933 ± 0.07.
As to UniProt Q8IYE0 and related entries, the NP40-soluble protein abundance worked out at 0.985 ± 0.015.
In the case of UniProt Q8NFD5 and related entries, the NP40-soluble protein abundance was 1.07 ± 0.058.
As for “Q86WV7 and related entries (UniProt Q96MW1)”, the NP40-soluble protein abundance stood at 1.04 ± 0.054.
Turning to UBASH3B (UniProt Q8TF42), the NP40-soluble protein abundance was 0.974 ± 0.033.
For the target FBXO22 (UniProt Q8NEZ5), the NP40-soluble protein abundance stood at 0.91 ± 0.024.
In the case of UniProt Q8NHH9 and related entries, the NP40-soluble protein abundance was 0.994 ± 0.062.
For the target RYBP (UniProt Q8N488), the NP40-soluble protein abundance stood at 0.929 ± 0.11.
For the target PNPT1 (UniProt Q8TCS8), the NP40-soluble protein abundance worked out at 1 ± 0.024.
In the case of NEK9 (UniProt Q8TD19), the NP40-soluble protein abundance worked out at 0.977 ± 0.033.
Regarding UniProt Q8N9R8 and related entries, the NP40-soluble protein abundance turned out to be 1.04 ± 0.044.
Regarding UniProt Q86X83 and related entries, the NP40-soluble protein abundance amounted to 0.984 ± 0.04.
Regarding UniProt Q8TAF3 and related entries, the NP40-soluble protein abundance is 0.949 ± 0.055.
On to RNF214 (UniProt Q8ND24), for which the NP40-soluble protein abundance was 0.971 ± 0.093.
With FTSJ3 (UniProt Q8IY81), the NP40-soluble protein abundance amounted to 1.05 ± 0.02.
Turning to UniProt Q8NE86 and related entries, the NP40-soluble protein abundance was determined as 0.978 ± 0.057.
Take UniProt Q8NC51 and related entries: the NP40-soluble protein abundance was determined as 1.07 ± 0.041.
Still for that read-out and setting: with SETD7 (UniProt Q8WTS6) the figure was 0.931 ± 0.081; with UniProt Q8IYB7 and related entries, 0.993 ± 0.043.
Regarding UniProt Q8NHM5 and related entries, the NP40-soluble protein abundance was 0.982 ± 0.051.
For the target CMIP (UniProt Q8IY22), the NP40-soluble protein abundance was found to be 0.999 ± 0.065.
As to IRF2BP1 (UniProt Q8IU81), the NP40-soluble protein abundance is 0.976 ± 0.061.
In the case of UniProt Q8N6Q8, the NP40-soluble protein abundance came out at 1.06 ± 0.029.
The same measure, in the same setting: next, UniProt Q8ND82 and related entries: 1.14 ± 0.099; EXOC8 (UniProt Q8IYI6): 0.976 ± 0.053; NUDCD3 (UniProt Q8IVD9): 0.913 ± 0.018.

The record behind these values is the supplement of paper PMC6411743.
